Measurements reported in patent US4388317A, “Pyrimidones having histamine H2 -antagonist activity” (Smith Kline & French Laboratories Limited, priority 1981, dated 1983).
Some entries share one result that the patent states for a list of compounds.

Tested on: histamine H2 -receptors
Test: inhibition of histamine-stimulated secretion of gastric acid from the lumen-perfused stomachs of rats anaesthetised with urethane
Assay type: in vivo, rat
Details: i.v., lumen-perfused stomach

SMILES	dose causing 50% inhibition of maximal acid secretion
CN(C)Cc1ccc(Cc2cnc(NCCSCc3csc(NC(=N)N)n3)[nH]c2=O)s1 [Example 3, 2-[2-(2-Guanidino-4-thiazolylmethylthio)ethylamino]-5-(5-dimethylaminomethyl-2-thienylmethyl)-4-pyrimidone]	less than 0.5 micromole kg^-1
CN(C)Cc1ccc(CSCCNc2ncc(Cc3ccc(CN(C)C)o3)c(=O)[nH]2)o1 [Example 7, 2-[2-(5-dimethylaminomethyl-2-furanylmethylthio)ethylamino]-5-(5-dimethylaminomethyl-2-furanylmethyl)-4-pyrimidone]	less than 0.5 micromole kg^-1
CN(C)Cc1ccc(CSCCNc2ncc(Cc3ccc(CN(C)C)s3)c(=O)[nH]2)o1 [Example 2, 2-[2-(5-dimethylaminomethyl-2-furanylmethylthio)ethylamino]-5-(5-dimethylaminomethyl-2-thienylmethyl)-4-pyrimidone]	less than 0.5 micromole kg^-1
Cc1[nH]cnc1CSCCNc1ncc(Cc2ccc(CN(C)C)cc2)c(=O)[nH]1 [Example 4, 2-[2-(5-methyl-4-imidazolylmethylthio)ethylamino]-5-(4-dimethylaminomethylbenzyl)-4-pyrimidone]	less than 0.5 micromole kg^-1
CN(C)Cc1ccc(Cc2cnc(NCCSCc3ccc(CN(C)C)o3)[nH]c2=O)cc1 [Example 5, 2-[2-(5-dimethylaminomethyl-2-furanylmethylthio)ethylamino]-5-(4-dimethylaminomethylbenzyl) 4-pyrimidone]	less than 0.5 micromole kg^-1
CN(C)Cc1cccc(Cc2cnc(NCCSCc3ccc(CN(C)C)o3)[nH]c2=O)c1 [Example 13, 2-[2-(5-Dimethylaminomethyl-2-furanylmethylthio)ethylamino]-5-(3-dimethylaminomethylbenzyl)-4-pyrimidone]	less than 0.5 micromole kg^-1
Cc1[nH]cnc1CSCCNc1ncc(Cc2cccc(CN(C)C)c2)c(=O)[nH]1 [Example 12, 2-[2-(5-Methyl-4-imidazolylmethylthio)ethylamino]-5-(3-dimethylaminomethylbenzyl)-4-pyrimidone]	less than 0.5 micromole kg^-1
CN(C)Cc1ccc(CSCCNc2ncc(Cc3ccc(CN(C)C)s3)c(=O)[nH]2)s1 [Example 9, 2-[2-(5-Dimethylaminomethyl-2-thienylmethylthio)ethylamino]-5-(5-dimethylaminomethyl-2-thienylmethyl)-4-pyrimidone]	less than 0.5 micromole kg^-1
Cc1[nH]cnc1CSCCNc1ncc(Cc2ccc(CN(C)C)nc2)c(=O)[nH]1 [Example 10, 2-[2-(5-Methyl-4-imidazolylmethylthio)ethylamino]-5-(6-dimethylaminomethyl-3-pyridylmethyl)-4-pyrimidone]	less than 0.5 micromole kg^-1
Cc1[nH]cnc1CSCCNc1ncc(Cc2ccc(CN(C)C)s2)c(=O)[nH]1 [Example 1, 2-[2-(5-methyl-4-imidazolyl-methylthio)ethylamino]-5-(5-dimethylaminomethyl-2-thienylmethyl)-4-pyrimidone]	less than 0.5 micromole kg^-1
CN(C)Cc1ccc(Cc2cnc(NCCSCc3csc(NC(=N)N)n3)[nH]c2=O)o1 [Example 8, 2-[2-(2-Guanidino-4-thiazolylmethylthio)ethylamino]-5-(5-dimethylaminomethyl-2-furanylmethyl)-4-pyrimidone]	less than 0.5 micromole kg^-1
CN(C)Cc1ccc(Cc2cnc(NCCSCc3ccc(CN(C)C)o3)[nH]c2=O)cn1 [Example 11, 2-[2-(5-dimethylaminomethyl-2-furanylmethylthio)ethylamino]-5-(6-dimethylaminomethyl-3-pyridylmethyl)-4-pyrimidone]	less than 0.5 micromole kg^-1
Cc1[nH]cnc1CSCCNc1ncc(Cc2ccc(CN(C)C)o2)c(=O)[nH]1 [Example 6, 2-[2-(5-methyl-4-imidazolylmethylthio)ethylamino]-5-(5-dimethylaminomethyl-2-furanylmethyl)-4-pyrimidone]	less than 0.5 micromole kg^-1
